Laboratory results taken from patent US20230303522A1, “ARYLTETRAHYDROPYRIDAZINE DERIVATIVE OR SALT THEREOF, INSECTICIDAL AGENT CONTAINING THE COMPOUND, AND METHOD OF USE THEREOF” (NIHON NOHYAKU CO., LTD., priority 2020, published 2023).
Some results were stated once for a whole list of compounds, not compound by compound.

What was measured:
Type in all cases: in vivo
[1] = system: diamondback moth (Plutella xylostella); experiment: Insecticidal test on diamondback moth (dip treatment of Chinese cabbage seedlings with laid eggs); conditions: 500 ppm dispersion, dip about 30 seconds, hatched larvae counted 6 days after treatment, 25° C.
[2] = system: small brown planthopper (Laodelphax striatella); experiment: Insecticidal test on small brown planthopper (rice seedling dip); conditions: 500 ppm dispersion, rice seedlings dipped 30 seconds, 3rd-instar larvae, 8 days after inoculation
[3] = system: western flower thrips (Frankliniella occidentalis); experiment: Insecticidal test on western flower thrips (kidney bean leaf pieces); conditions: 500 ppm dispersion applied to hatched larvae on kidney bean leaf pieces, 4 days after treatment

Row | SMILES | insecticidal efficacy (mortality rate criteria) against diamondback moth [1] | insecticidal efficacy (corrected mortality rate criteria) against small brown planthopper [2] | insecticidal efficacy (mortality rate criteria) against western flower thrips [3]
1 | O=C(Nc1ccc(F)cc1)C1=C(O)CN(c2ccc(OC(F)(F)F)cc2)NC1=O [1-11] | A (the mortality rate is 100%) | A (the mortality rate is 100%) | –
2 | O=C(Nc1ccc(F)cc1)C1=C(O)CN(c2ccc(Cl)c(Cl)c2)NC1=O [1-16] | A (the mortality rate is 100%) | – | –
3 | N#Cc1ccc(NC(=O)C2=C(O)CN(c3ccc(Cl)nc3)NC2=O)nc1 [1-36] | A (the mortality rate is 100%) | A (the mortality rate is 100%) | –
4 | O=C(NCC(F)F)C1=C(O)CN(c2ccc(C(F)(F)F)nc2)NC1=O [1-145] | – | A (the mortality rate is 100%) | A (the mortality rate is 100%)
5 | C#CCNC(=O)C1=C(O)CN(c2ccc(C#N)cn2)NC1=O [1-149] | A (the mortality rate is 100%) | – | A (the mortality rate is 100%)
6 | N#Cc1ccc(N2CC(O)=C(C(=O)Nc3nccs3)C(=O)N2)nc1 [1-150] | – | – | A (the mortality rate is 100%)
7 | C#CCNC(=O)C1=C(O)CN(c2ccc(C#N)nc2)NC1=O [1-155] | – | A (the mortality rate is 100%) | A (the mortality rate is 100%)
8 | O=C(Nc1ccc(F)cn1)C1=C(O)CN(c2nc3ccc(Cl)cc3s2)NC1=O [1-159] | A (the mortality rate is 100%) | – | A (the mortality rate is 100%)
9 | O=C(Nc1ccc(F)cn1)C1=C(O)CN(c2nc3cc(C(F)(F)F)ccc3s2)NC1=O [1-160] | A (the mortality rate is 100%) | – | A (the mortality rate is 100%)
10 | O=C(Nc1ccc(F)cc1)C1=C(O)CN(c2ccc3ccccc3n2)NC1=O [1-162] | A (the mortality rate is 100%) | A (the mortality rate is 100%) | –
11 | O=C(Nc1ccc(F)cn1)C1=C(O)CN(c2ccc3ccccc3n2)NC1=O [1-163] | A (the mortality rate is 100%) | A (the mortality rate is 100%) | –
12 | O=C(Nc1ccc(F)cc1)C1=C(O)CN(c2cnc3c(F)cccc3c2)NC1=O [1-164] | A (the mortality rate is 100%) | A (the mortality rate is 100%) | –
13 | O=C(NCc1cnccn1)C1=C(O)CN(c2ccc(C(F)(F)F)cc2)NC1=O [1-174] | – | A (the mortality rate is 100%) | –
14 | O=C1NN(c2ccc(C(F)(F)F)nc2)CC(O)=C1C(=O)NC1(c2ccccc2)CC1 [1-211] | – | A (the mortality rate is 100%) | –
15 | O=C(NCc1cnccn1)C1=C(O)CN(c2ccc(C(F)(F)F)nc2)NC1=O [1-213] | – | A (the mortality rate is 100%) | –
16 | O=C(Nc1nccs1)C1=C(O)CN(c2ccc(C(F)(F)F)nc2)NC1=O [1-214] | – | A (the mortality rate is 100%) | A (the mortality rate is 100%)
17 | O=C(Nc1ccc(F)cc1)C1=C(O)CN(c2cccc(C(F)(F)F)n2)NC1=O [1-235] | A (the mortality rate is 100%) | – | A (the mortality rate is 100%)
18 | N#Cc1nc(N2CC(O)=C(C(=O)Nc3ccc(F)cc3)C(=O)N2)ccc1C(F)(F)F [1-240] | A (the mortality rate is 100%) | – | A (the mortality rate is 100%)
19 | C#CCNC(=O)C1=C(O)CN(c2cnc(Cl)c(Cl)c2)NC1=O [1-242] | A (the mortality rate is 100%) | A (the mortality rate is 100%) | –
20 | O=C(Nc1ccc(F)cc1)C1=C(O)CN(c2nc(C(F)(F)F)cs2)NC1=O [1-243] | A (the mortality rate is 100%) | – | A (the mortality rate is 100%)
21 | Cc1ccc(NC(=O)C2=C(O)CN(c3ccc(C#N)nc3)NC2=O)cc1F [1-306] | A (the mortality rate is 100%) | A (the mortality rate is 100%) | –
22 | N#Cc1ccc(N2CC(O)=C(C(=O)Nc3ccccn3)C(=O)N2)cn1 [1-308] | – | A (the mortality rate is 100%) | –
23 | O=C1NN(c2ccc(C(F)(F)F)nc2)CC(O)=C1C(=S)NCc1ccccc1 [2-14] | A (the mortality rate is 100%) | A (the mortality rate is 100%) | –
24 | O=C1NN(c2ccc(C(F)(F)F)nc2)CC(O)=C1C(=S)Nc1cccnc1 [2-15] | – | A (the mortality rate is 100%) | –
25 | C=CCNC(=S)C1=C(O)CN(c2ccc(C(F)(F)F)nc2)NC1=O [2-17] | – | A (the mortality rate is 100%) | –
26 | CCCN(C)C(=O)C1=C(O)CN(c2ccc(C(F)(F)F)nc2)NC1=O [3-1] | – | A (the mortality rate is 100%) | –
